From article PMC6525112
No constants are given. Whether binding was seen depends on the method and setting. Some results given as binding are weak or reduced against the parent protein; the word gives no strength.

Protein sequences, listed by entry. Tags and fused reporters are not part of them. Residues count along the entry.
UniProt P01009, residues 25-418: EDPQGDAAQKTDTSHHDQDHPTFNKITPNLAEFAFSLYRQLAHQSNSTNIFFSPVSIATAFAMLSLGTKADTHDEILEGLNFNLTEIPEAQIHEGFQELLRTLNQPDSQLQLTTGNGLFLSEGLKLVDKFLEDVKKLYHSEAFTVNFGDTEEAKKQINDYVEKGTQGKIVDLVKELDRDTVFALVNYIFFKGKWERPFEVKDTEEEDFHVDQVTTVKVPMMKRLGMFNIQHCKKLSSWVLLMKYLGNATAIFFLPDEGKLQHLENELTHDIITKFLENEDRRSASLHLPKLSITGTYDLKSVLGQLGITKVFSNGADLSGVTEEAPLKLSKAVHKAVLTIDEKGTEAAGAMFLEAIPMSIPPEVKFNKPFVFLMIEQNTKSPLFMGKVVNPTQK
UniProt P01024, residues 672-748: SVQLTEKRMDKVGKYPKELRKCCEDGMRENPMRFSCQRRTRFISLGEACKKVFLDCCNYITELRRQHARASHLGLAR

Molecular target: commercial human plasma-derived α-1-antitrypsin (human) (UniProt P01009)
Test: anaphylatoxins detected by cytometric bead array in purified plasma-derived α-1-antitrypsin; CBA anaphylatoxin flex set on commercial human plasma-derived and recombinant α-1-antitrypsin preparations

Substance: C3a present in human plasma-derived α-1-antitrypsin (from UniProt P01024 672-748)
- binding: binds
